{
  "sequences": {"note": "Chains of the proteins cited; added tags and fusions are not shown. Lines headed by an entry give the natural chain unless they say otherwise; changes in a name come on top.", "UniProt P46093": "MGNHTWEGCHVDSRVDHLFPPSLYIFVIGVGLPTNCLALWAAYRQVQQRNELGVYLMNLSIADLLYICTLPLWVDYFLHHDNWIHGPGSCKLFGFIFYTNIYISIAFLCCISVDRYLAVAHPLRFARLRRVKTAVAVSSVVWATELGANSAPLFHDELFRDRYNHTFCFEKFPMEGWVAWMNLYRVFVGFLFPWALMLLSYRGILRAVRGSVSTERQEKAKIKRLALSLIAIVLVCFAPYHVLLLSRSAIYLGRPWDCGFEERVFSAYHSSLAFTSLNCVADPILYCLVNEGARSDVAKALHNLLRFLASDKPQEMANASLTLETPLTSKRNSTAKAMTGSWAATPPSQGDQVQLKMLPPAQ"},
  "source": "patent US20090291942A1",
  "about": "“IMIDAZO PYRIDINE DERIVATIVES” (priority 2008, published 2009)",
  "target": "T1, human GPR4 (Homo sapiens, UniProt P46093)",
  "T1 construct": "expressed in transfected cells",
  "experiment": "Cell-based assay for human GPR4 activity (pH-induced cAMP formation, HTRF)",
  "conditions": "HeLa cells stably expressing human GPR4, pH-induced cAMP formation",
  "protocol": "a) Cell-Based Assay for Human GPR4 Activity\nHeLa cells stably expressing human GPR4 were established by transfecting the cells with a construct containing the human GPR4 coding sequence. The cells were grown in DMEM/HAM's F12 medium supplemented with 10% fetal calf serum (FCS), 100 u/ml penicillin, 100 μg/ml streptomycin and 400 μg/ml G418 and 10 mM Hepes pH 8.0. pH-induced formation of cAMP was determined using the HTRF technology as provided by CisBio Inc. The cells were seeded in 384-well plates and cultured for 24 hours at 37° C., 5% CO2 before performing the assay. Medium was removed and 10 μl buffer A (HBS, 10 mM Hepes, pH 8, 2 mM IBMX) was added. For compound testing, buffer A with 2× concentrated compounds was used. Cells were incubated for 15 min at room temperature. 10 μl buffer B (HBS, 30 mM Hepes, specific pH) was added to reach the appropriate final pH for stimulation (see below) and incubation was continued for 15 min at room temperature. […] HBS: 130 mM NaCl, 0.9 mM NaH2PO4, 5.4 mM KCl, 0.8 mM MgSO4, CaCl2 1.8 mM, 25 mM glucose, 10-30 mM Hepes. Adjustment of HBS buffers: Bf A Bf B Final stimulation pH (1 volume buffer A+1 volume buffer B)\nCompounds were diluted from fresh stock solutions at 10 mM in DMSO to 2 mM and then used for serial dilutions in DMSO.",
  "data": [
    {"smiles": "CCc1nc2c(C)cc(C)nc2n1Cc1ccc(NC(=O)CCCCN2CCC(N(C)C)C2)cc1", "note": "(stereo not shown) [Example 103, 5-(3-Dimethylamino-pyrrolidin-1-yl)-pentanoic acid [4-(2-ethyl-5,7-dimethyl-imidazo[4,5-b]pyridin-3-ylmethyl)-phenyl]-amide]", "values": [
      {"measurement": "IC50", "value": 376, "unit": "nM"}
    ]}
  ]
}
